{"source": "the supplement of paper PMC12542422", "note": "Where a name gives a salt, the structure may show the parent alone. ± gives the standard deviation of the averaged measurements. This is one part of the list. Values are raw readings; no control value is given beside them.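 HeLa cells imaged for ribosome-assembly readouts (ENP1 staining with or without export block, or inducible tagged ribosomal protein reporters); machine learning classified each cell's signal location against solvent (DMSO) controls. Hits exceeded the DMSO false-positive mean by five standard deviations, then were visually confirmed; three biological replicates.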"}
{"test_system": "HeLa RPL29-GFP reporter", "test": "fraction of reporter-positive cells with nuclear (nucleolar or nucleolar/nucleoplasmic) RPL29-GFP (MainHitrate); higher = more cells with nucleolar/nuclear readout signal (for ENP1 -LMB: less RNAPI inhibition; for +LMB ENP1 and RP reporters: stronger nuclear/nucleolar retention, i.e. ribosome biogenesis defect)", "details": "concentration: 1 µM; treatment time: 6 h"}
{"compound": "C[C@@H]1O[C@@H](O[C@H]2C[C@@H](O)[C@]3(CO)[C@H]4[C@H](O)C[C@]5(C)[C@@H](C6=CC(=O)OC6)CC[C@]5(O)[C@@H]4CC[C@]3(O)C2)[C@H](O)[C@H](O)[C@H]1O", "note": "[Ouabain]", "fraction of reporter-positive cells with nuclear": "0.235 ± 0.1"}
{"compound": "C[C@]12C/C(=C/O)C(=O)C[C@@H]1CC[C@@H]1[C@@H]2CC[C@@]2(C)[C@H]1CC[C@]2(C)O", "note": "[Oxymetholone]", "fraction of reporter-positive cells with nuclear": "0.235 ± 0.048"}
{"compound": "CC[N+]1(C)CCCC(OC(=O)C(O)(c2ccccc2)c2ccccc2)C1", "note": "(stereo unspecified) [Pipenzolate Bromide]", "fraction of reporter-positive cells with nuclear": "0.273 ± 0.26"}
{"compound": "CN1C(=O)CCS(=O)(=O)C1c1ccc(Cl)cc1", "note": "(stereo unspecified) [Chlormezanone (Trancopal)]", "fraction of reporter-positive cells with nuclear": "0.213 ± 0.054"}
{"compound": "C[N+]1(C)[C@@H]2C[C@@H](OC(=O)[C@H](CO)c3ccccc3)C[C@H]1[C@@H]1O[C@@H]12", "note": "[Methscopolamine (Pamine)]", "fraction of reporter-positive cells with nuclear": "0.22 ± 0.081"}
{"compound": "Cc1cc(C(C#N)c2ccc(Cl)cc2)c(Cl)cc1NC(=O)c1cc(I)cc(I)c1O", "note": "(stereo unspecified) [Closantel]", "fraction of reporter-positive cells with nuclear": "0.251 ± 0.07"}
{"compound": "CC[C@H]1CN2CCc3cc(OC)c(OC)cc3[C@@H]2C[C@@H]1C[C@H]1NCCc2cc(OC)c(OC)cc21", "note": "[Emetine]", "fraction of reporter-positive cells with nuclear": "0.419 ± 0.24"}
{"compound": "CC(C)NCC(O)c1ccccc1Cl", "note": "(stereo unspecified) [Clorprenaline HCL]", "fraction of reporter-positive cells with nuclear": "0.219 ± 0.055"}
{"compound": "Cc1cc(O)ccc1Cl", "note": "[Chlorocresol]", "fraction of reporter-positive cells with nuclear": "0.231 ± 0.062"}
{"compound": "NCC1(CC(=O)O)CCCCC1", "note": "[Gabapentin Hydrochloride]", "fraction of reporter-positive cells with nuclear": "0.19 ± 0.058"}
{"compound": "C[C@]12CC[C@H]3[C@@H](CC[C@@]45O[C@@H]4C(O)=C(C#N)C[C@]35C)[C@@H]1CC[C@@H]2O", "note": "[Trilostane]", "fraction of reporter-positive cells with nuclear": "0.197 ± 0.079"}
